Results: the supplement of paper PMC7877785
± gives the uncertainty stated by the source. The uncertainty is large for many entries.

Assay: self-splicing fitness, log relative to wild type (ln ratio); higher = more splicing; Tetrahymena group I intron in knt gene, E. coli kanamycin selection, DiMSum; sequences stand for … in CUCUCU…GGAGGGAAAAGUUAUCAGGCAUGCACCUGGUAGCUAGUCUUUAAACCAAUAGAUUGCAUCGGUUUAAAAGGCAAGACCGUCAAAUUGCGGGAAAGGGGUCAACAGCCGUUCAGUACCAAGUCUCAGGGGAAACUUUGAGAUGGCCUUGCAAAGGGUAUGGUAAUAAGCUGACGGACAUGGUCCUAACCACGCAGCCAAGUCCUAAGUCAACAGAUCUUCUGUUGAUAUGGAUGCAGUUCACAGACUAAAUGUCGGUCGGGGAAGAUGUAUUCUUCUCAUAAGAUAUAGUCGGACCUCUCCUUAAUGGGAGCUAGCGGAUGAAGUGAUGCAACACUGGAGCCGCUGGGAACUAAUUUGUAUGCGAAAGUAUAUUGAUUAGUUUUGGAGUACUCGUGGUCG
How it was run: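 The eight P1ex-region nucleotides of an intron in the knt kanamycin-resistance gene on pET-22b(+) were all randomised and the library put into E. coli BL21(DE3). Six replicate transformations were grown overnight at 37°C or 30°C on LB agar with or without 25 μg/mL kanamycin, together with 100 μg/mL carbenicillin, 50 μM IPTG and 0.2% rhamnose. Colonies were pooled and amplicon-sequenced on an Illumina HiSeq 2500. Fitness from DiMSum is the error-weighted combination of wild-type-normalised replicate fold changes, kanamycin over none.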

Row | Sequence | self-splicing fitness (ln) (30 °C) | self-splicing fitness (ln) (37 °C)
1 | CUGUAGCAAUAUUACGCGUU | -4.19 ± 0.3 | -2.26 ± 0.18
2 | UAGGAGCAAUAUUACGCAAC | 0.845 ± 0.77 | -2.08 ± 1.1
3 | UCGCAGCAAUAUUACGUCGC |  | -3.7 ± 0.51
4 | GCGAAGCAAUAUUACGCCAA |  | -1.82 ± 0.39
5 | CUGGAGCAAUAUUACGGCUC |  | -0.693 ± 1
6 | CCAAAGCAAUAUUACGAUCC |  | -2.69 ± 0.54
7 | UAGAAGCAAUAUUACGUCCC | -2.46 ± 0.63 | 
8 | AUUUAGCAAUAUUACGCCCC |  | -0.0681 ± 0.9
9 | AGGAAGCAAUAUUACGCUGC |  | -3.68 ± 0.73
10 | CAACAGCAAUAUUACGCGAU | -5.11 ± 0.45 | -2.63 ± 0.23
11 | AUGGAGCAAUAUUACGAGAG | -4.35 ± 0.52 | 
12 | CUCUAGCAAUAUUACGCCCA |  | -4.47 ± 1
13 | CGAGAGCAAUAUUACGUAAC | -1.32 ± 0.54 | 
14 | UCGAAGCAAUAUUACGCGCA | 0.425 ± 0.26 | -0.635 ± 0.21
15 | AAAUAGCAAUAUUACGCGAA | -1.42 ± 0.14 | -1.59 ± 0.16
16 | GGAUAGCAAUAUUACGCCUC |  | -1.62 ± 0.59
17 | UCGGAGCAAUAUUACGCGGC |  | -0.995 ± 0.53
18 | GUGGAGCAAUAUUACGACAU | -2.402 ± 0.022 | -1.48 ± 0.038
19 | CCCUAGCAAUAUUACGCAAC | -4.39 ± 0.72 | -3.99 ± 1
20 | CCUCAGCAAUAUUACGUACG | -1.32 ± 0.069 | -0.131 ± 0.084
21 | GUUGAGCAAUAUUACGCGGC | -1.27 ± 0.65 | -1.33 ± 0.67
22 | AACGAGCAAUAUUACGCAUG | -4.23 ± 0.31 | -2.76 ± 0.29
23 | GCAAAGCAAUAUUACGAUCA | -1.4 ± 0.12 | -0.882 ± 0.11
24 | CCAUAGCAAUAUUACGCCAC | -3.23 ± 0.74 | 

Row | Sequence | self-splicing fitness (ln) (30 °C) | self-splicing fitness (ln) (37 °C)
25 | UCUGAGCAAUAUUACGGCCG |  | -2.17 ± 0.56
26 | GCAUAGCAAUAUUACGGCAC | -1.15 ± 0.14 | -0.425 ± 0.15
27 | GGGGAGCAAUAUUACGCGGC |  | -1.24 ± 0.49
28 | GCGGAGCAAUAUUACGGCUG |  | -2.61 ± 0.75
29 | CCUCAGCAAUAUUACGCGCU | -2 ± 0.13 | -2.79 ± 0.25
30 | UUACAGCAAUAUUACGCUGC |  | -2.19 ± 0.79
31 | UCCCAGCAAUAUUACGUCCG | -3.89 ± 0.74 | 
32 | GGUAAGCAAUAUUACGUCGA | -2.41 ± 0.52 | 
33 | CUCAAGCAAUAUUACGAGGU | -4.9 ± 0.59 | 
34 | UAGCAGCAAUAUUACGAGAC | -1.84 ± 0.24 | -3.06 ± 0.32
35 | UGGGAGCAAUAUUACGUGAU | -0.572 ± 1.2 | 
36 | GAGCAGCAAUAUUACGUCUG | -2.87 ± 0.82 | -1.67 ± 0.55
37 | GGCUAGCAAUAUUACGUUAC | -1.55 ± 0.069 | -0.888 ± 0.093
38 | UCCAAGCAAUAUUACGUUCG | -3.57 ± 0.27 | -2.2 ± 0.21
39 | GUUCAGCAAUAUUACGAACU | -3.89 ± 0.14 | -2.56 ± 0.16
40 | UAAUAGCAAUAUUACGCAGA | -2.85 ± 0.64 | 
41 | ACGGAGCAAUAUUACGUUUU | -5.16 ± 0.51 | 
42 | UAUAAGCAAUAUUACGCUGC |  | -3.08 ± 0.52
43 | AAAAAGCAAUAUUACGGGUC | -3.39 ± 0.16 | -2.7 ± 0.26
44 | UGAGAGCAAUAUUACGCCUC | -2.81 ± 0.55 | -1.11 ± 0.87
45 | UGUAAGCAAUAUUACGCCCG | 0.0292 ± 0.63 | -0.677 ± 0.71
46 | AUGUAGCAAUAUUACGUCGC | -3.47 ± 0.6 | 
47 | AGUAAGCAAUAUUACGAAAG |  | -3 ± 0.74
48 | UUCGAGCAAUAUUACGCUAC | -3.23 ± 1 | 

Row | Sequence | self-splicing fitness (ln) (30 °C) | self-splicing fitness (ln) (37 °C)
49 | CCCAAGCAAUAUUACGGUAA | -2.25 ± 0.14 | -1.4 ± 0.16
50 | UCAGAGCAAUAUUACGACCC | -1.21 ± 0.59 | 
51 | UAACAGCAAUAUUACGUUGC | -4.97 ± 0.51 | 
52 | GGGGAGCAAUAUUACGAACU | -2.75 ± 0.31 | -1.76 ± 0.27
53 | CCGAAGCAAUAUUACGGAGC | -1.9 ± 0.33 | -2.74 ± 0.44
54 | GGCCAGCAAUAUUACGCCCG |  | -1.18 ± 0.69
55 | GGAUAGCAAUAUUACGCAUU | -3.51 ± 0.32 | -1.65 ± 0.22
56 | CGUUAGCAAUAUUACGCAGU | -5.34 ± 0.72 | 
57 | UGAUAGCAAUAUUACGAGAC | -4.06 ± 0.53 | 
58 | UUUUAGCAAUAUUACGACCC |  | -0.432 ± 0.84
59 | CGGGAGCAAUAUUACGCUUG | -4.23 ± 0.6 | 
60 | GUCGAGCAAUAUUACGCUUU | -1.81 ± 0.18 | -1.92 ± 0.2
61 | ACUGAGCAAUAUUACGCCGG |  | -2.48 ± 0.77
62 | CGGUAGCAAUAUUACGAGUC |  | -4.77 ± 0.74
63 | UAAGAGCAAUAUUACGCUGC | -4.09 ± 1 | 
64 | AAGGAGCAAUAUUACGAAAG |  | -3.21 ± 0.6
65 | CGGUAGCAAUAUUACGCUUA | -3.65 ± 0.52 | 
66 | UUGGAGCAAUAUUACGGGCU | -4.44 ± 1 | 
67 | UACGAGCAAUAUUACGCUUG |  | -2.43 ± 0.55
68 | CUCUAGCAAUAUUACGAAUA |  | -2.47 ± 1.1
69 | UUGUAGCAAUAUUACGUAGU | -5 ± 0.71 | -3.53 ± 0.6
70 | UUAGAGCAAUAUUACGUUUC |  | -2.71 ± 0.76
71 | AGCGAGCAAUAUUACGCAGG |  | -2.89 ± 0.53
72 | CGCGAGCAAUAUUACGGUUC | -4.02 ± 0.59 | -1.79 ± 0.67

Row | Sequence | self-splicing fitness (ln) (30 °C) | self-splicing fitness (ln) (37 °C)
73 | AAGGAGCAAUAUUACGGAUA | -3.9 ± 0.35 | -1.99 ± 0.29
74 | UCGAAGCAAUAUUACGCACC | -4.21 ± 1 | 
75 | UAUUAGCAAUAUUACGGGAU | -3.8 ± 0.52 | 
76 | GUGUAGCAAUAUUACGCUAU | -4.21 ± 0.76 | 
77 | CGUGAGCAAUAUUACGUAUA | -2.71 ± 0.18 | -1.55 ± 0.18
78 | CUCCAGCAAUAUUACGACUA | -2.47 ± 0.21 | -2.53 ± 0.29
79 | UUAUAGCAAUAUUACGGUAU | -3.65 ± 0.75 | -1.68 ± 0.52
80 | CAGUAGCAAUAUUACGCCCU | -4 ± 0.54 | -1.3 ± 0.32
81 | CUGGAGCAAUAUUACGUGCA |  | -2.24 ± 0.55
82 | UGCGAGCAAUAUUACGAAUU | -1.78 ± 0.61 | -2.43 ± 1.1
83 | ACACAGCAAUAUUACGAAAC | -3.02 ± 0.23 | -1.82 ± 0.22
84 | UCAGAGCAAUAUUACGUCAC |  | -2.86 ± 0.75
85 | CCUUAGCAAUAUUACGGUGU | -3.82 ± 0.24 | -2.81 ± 0.23
86 | UCUUAGCAAUAUUACGCUGA | -3.27 ± 1.1 | 
87 | GGGGAGCAAUAUUACGCAGG | -3.4 ± 0.75 | 
88 | AAAUAGCAAUAUUACGCCGC | -2.99 ± 0.56 | 
89 | CGGGAGCAAUAUUACGUAAU | -4.85 ± 0.52 | 
90 | GUAUAGCAAUAUUACGAACG |  | -1.31 ± 0.88
91 | UAUAAGCAAUAUUACGAGAA | -0.993 ± 0.82 | -1.08 ± 0.52
92 | CUGCAGCAAUAUUACGCCGA | -4.48 ± 0.59 | 
93 | AACGAGCAAUAUUACGCUAC | -3.06 ± 0.61 | -1.86 ± 0.31
94 | UCCGAGCAAUAUUACGACAA |  | -1.3 ± 0.52
95 | UCUUAGCAAUAUUACGUAUA | -4.5 ± 0.6 | 
96 | CUCCAGCAAUAUUACGGCCC | -3.72 ± 1 | -2.34 ± 0.54

Some of the entries so far, tab-delimited.
Row	Sequence	self-splicing fitness (ln) (30 °C)	self-splicing fitness (ln) (37 °C)
78	CUCCAGCAAUAUUACGACUA	-2.47 ± 0.21	-2.53 ± 0.29
81	CUGGAGCAAUAUUACGUGCA		-2.24 ± 0.55
83	ACACAGCAAUAUUACGAAAC	-3.02 ± 0.23	-1.82 ± 0.22
86	UCUUAGCAAUAUUACGCUGA	-3.27 ± 1.1	
95	UCUUAGCAAUAUUACGUAUA	-4.5 ± 0.6	
96	CUCCAGCAAUAUUACGGCCC	-3.72 ± 1	-2.34 ± 0.54

(further entries)

Row | Sequence | self-splicing fitness (ln) (30 °C) | self-splicing fitness (ln) (37 °C)
97 | ACCGAGCAAUAUUACGUCCC | -2.79 ± 1.2 | 0.905 ± 0.79
98 | AGCGAGCAAUAUUACGAUGC |  | -3.08 ± 0.61
99 | GGCUAGCAAUAUUACGCCUA | -0.205 ± 0.23 | -1.69 ± 0.3
100 | CAAUAGCAAUAUUACGCCAC |  | -3.6 ± 0.73
101 | AAUGAGCAAUAUUACGAGGC | -4.13 ± 0.59 | -3.11 ± 0.4
102 | AGAGAGCAAUAUUACGAAAC |  | -0.927 ± 1.2
103 | GGGAAGCAAUAUUACGAAAA | -2.75 ± 0.57 | -3.41 ± 0.73
104 | CUCCAGCAAUAUUACGUCCC |  | -2.3 ± 1.1
105 | CUUAAGCAAUAUUACGGCUC | -3.77 ± 0.75 | -1.71 ± 0.67
106 | GAGGAGCAAUAUUACGCGCC |  | -1.08 ± 0.66
107 | CCCGAGCAAUAUUACGCGUA | -3.06 ± 0.21 | -2.05 ± 0.21
108 | GUCAAGCAAUAUUACGGGAC |  | -3.99 ± 0.51
109 | GGGGAGCAAUAUUACGCACU |  | -1.18 ± 0.55
110 | CCAUAGCAAUAUUACGCGAA |  | -1.85 ± 0.52
111 | CGUAAGCAAUAUUACGCCCC | -1.57 ± 0.51 | -1.13 ± 0.5
112 | CCAGAGCAAUAUUACGUGAA | -3.7 ± 0.16 | -2.32 ± 0.18
113 | UGAGAGCAAUAUUACGGGCC | -2.77 ± 1.1 | -1.64 ± 0.6
114 | CAUCAGCAAUAUUACGCCGC |  | -1.97 ± 0.57
115 | AGAGAGCAAUAUUACGCUCU |  | -0.693 ± 0.82
116 | CCGCAGCAAUAUUACGUCCC | -3.63 ± 0.6 | 
117 | CCACAGCAAUAUUACGUGUG | -3.61 ± 0.095 | -2.36 ± 0.092
118 | AGAGAGCAAUAUUACGUCCG |  | -1.63 ± 0.33
